The target of the test is T1, Sulfolobus acidocaldarius FlaI (Sulfolobus acidocaldarius), Q4J9L0.
T1 chain: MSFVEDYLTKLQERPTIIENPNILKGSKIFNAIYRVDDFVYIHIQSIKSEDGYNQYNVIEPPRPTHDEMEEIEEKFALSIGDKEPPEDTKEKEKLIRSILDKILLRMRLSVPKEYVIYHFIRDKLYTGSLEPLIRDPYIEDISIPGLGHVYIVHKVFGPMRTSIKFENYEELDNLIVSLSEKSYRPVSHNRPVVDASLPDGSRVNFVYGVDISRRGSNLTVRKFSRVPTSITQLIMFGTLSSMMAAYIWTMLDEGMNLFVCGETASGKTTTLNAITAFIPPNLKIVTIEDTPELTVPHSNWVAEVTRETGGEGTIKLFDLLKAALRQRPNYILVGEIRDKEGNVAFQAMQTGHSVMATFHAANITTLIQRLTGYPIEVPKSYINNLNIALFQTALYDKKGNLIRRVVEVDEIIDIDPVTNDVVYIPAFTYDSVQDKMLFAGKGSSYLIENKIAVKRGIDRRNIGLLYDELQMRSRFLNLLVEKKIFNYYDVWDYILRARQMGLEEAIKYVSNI
In words: SEC; Superdex 200 10/300 GL; 500 µl of protein at 1 mg/ml; 20 mM Tris HCl pH 8.0, 150 mM NaCl; no nucleotide added; fractions on SDS-PAGE; both purified. Conditions: remark: other sources report otherwise. (In general: In gel filtration, larger molecules generally elute earlier.)

Results are given in words; binding and its absence hold for the method and conditions named.

B1: Sulfolobus acidocaldarius FlaI, Q4J9L0 1-513 (enzyme)
chain: MSFVEDYLTKLQERPTIIENPNILKGSKIFNAIYRVDDFVYIHIQSIKSEDGYNQYNVIEPPRPTHDEMEEIEEKFALSIGDKEPPEDTKEKEKLIRSILDKILLRMRLSVPKEYVIYHFIRDKLYTGSLEPLIRDPYIEDISIPGLGHVYIVHKVFGPMRTSIKFENYEELDNLIVSLSEKSYRPVSHNRPVVDASLPDGSRVNFVYGVDISRRGSNLTVRKFSRVPTSITQLIMFGTLSSMMAAYIWTMLDEGMNLFVCGETASGKTTTLNAITAFIPPNLKIVTIEDTPELTVPHSNWVAEVTRETGGEGTIKLFDLLKAALRQRPNYILVGEIRDKEGNVAFQAMQTGHSVMATFHAANITTLIQRLTGYPIEVPKSYINNLNIALFQTALYDKKGNLIRRVVEVDEIIDIDPVTNDVVYIPAFTYDSVQDKMLFAGKGSSYLIENKIAVKRGIDRRNIGLLYDELQMRSRFLNLLVEKKIFNYYDVWDYILRARQMGLEEAIKYVSNI
With B1, the binding result is “no binding”.

The values are drawn from paper PMC6011876, “Characterization of the ATPase FlaI of the motor complex of the Pyrococcus furiosus archaellum and its interactions between the ATP-binding protein FlaH” (PeerJ, 2018).
